Reference: publication PMC10931843
These are yes or no findings as the source states them, for the method shown. For some assays here: Binding can be weak; no strength is given.

Chains of the proteins cited; added tags and fusions are not shown.
UniProt Q7Y040: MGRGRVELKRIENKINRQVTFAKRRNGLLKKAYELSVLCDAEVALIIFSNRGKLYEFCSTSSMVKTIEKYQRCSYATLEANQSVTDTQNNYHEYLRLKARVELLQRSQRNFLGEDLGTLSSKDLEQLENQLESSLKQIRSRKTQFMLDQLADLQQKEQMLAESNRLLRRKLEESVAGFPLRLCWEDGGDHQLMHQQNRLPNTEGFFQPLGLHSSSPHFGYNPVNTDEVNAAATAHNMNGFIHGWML
UniProt K4DEK0: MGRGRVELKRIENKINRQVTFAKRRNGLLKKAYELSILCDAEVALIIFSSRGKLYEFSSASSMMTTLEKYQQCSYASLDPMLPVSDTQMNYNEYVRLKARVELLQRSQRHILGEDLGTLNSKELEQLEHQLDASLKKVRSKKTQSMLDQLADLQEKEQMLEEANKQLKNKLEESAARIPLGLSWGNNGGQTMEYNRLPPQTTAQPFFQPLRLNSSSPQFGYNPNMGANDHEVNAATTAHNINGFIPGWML

What was measured:
[1] = biological target: SlMADS1 (tomato (Solanum lycopersicum)) (UniProt Q7Y040); test: two-hybrid; … GAL4 Two-Hybrid System III; baits in pGBKT7 in yeast Y2Hgold, preys in pGADT7 in yeast Y187; growth on QDO (SD lacking Trp, Leu, His, adenine) and blue colour on QDO/X (with X-alpha-Gal)
[2] = biological target: SlMBP21 (tomato (Solanum lycopersicum)) (UniProt K4DEK0); test: as above

binding [1]: no binding | binding [2]: binds
Substance: TAGL1 (TOMATO AGAMOUS-LIKE1) (from UniProt Q8H281)
